Out of some 220,000 compounds screened, about 2,400 (1.1%) were called active. This list was built around the results that the source calls inconclusive (neither active nor inactive); the mix of calls is not that of the screen. Calls follow the shape of the dose curve; as a rule, active = well fitted inhibition curve with a large enough effect; inconclusive = small, poorly fitted or top-dose-only effect, or effect the other way; inactive = no such curve, though single readings can be large or run the other way. Where the call is inconclusive, the potency comes from a doubtful curve fit.
Experiment: qHTS Multiplex Assay to Identify Dual Action Probes in a Cell Model of Huntington: Aggregate Formation (GFP); also: nearly all actives have a fitted effect of over 60% in size
Settings: PC12 HttQ103-GFP aggregates, Acumen cytometry, 40 h; activity change, negative = inhibition: at 46.1 µM (top of the series) unless noted
Summary of the method: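 PC12/HTTQ103-GFP, ecdysone-inducible; teb 100 nM; cpd qHTS titration; GFP aggregates read on laser cytometer, Ex 488/Em 500-530 nm.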
In the case of `O=C(Cn1cnc2ccccc2c1=O)Nc1nc2ccccc2s1`, the Potency is reported as inconclusive: 3.16 µM [activator, full curve]. For `O=C(CCc1ccccc1)Nc1ccccc1`, the Potency was inconclusive: 3.16 µM [activator, single point]. In the case of `Cc1c(C(=O)NCC2COc3ccccc3O2)oc2ccc(S(=O)(=O)N3CCOCC3)cc12` (stereo not drawn), the Potency is reported as inconclusive: 15.8 µM [inhibitor, single point]. For `Cn1c(=O)oc2cc(S(=O)(=O)N3CCC(C(=O)NCCc4ccccc4)CC3)ccc21`, the activity change, negative = inhibition was inactive: -7.42% [at 9.22 µM]. With `Cc1cc(NS(=O)(=O)c2ccc(Nc3nc(-c4ccc(C)c(C)c4)cs3)cc2)no1` the Potency was “inactive”. With `Cc1cc2ncn(C(=O)N3CCC(C)CC3)c2cc1C` the Potency was inconclusive: 12.6 µM [inhibitor, single point]. In the case of `CC1=C(C#N)C(=O)NC(=O)/C1=C/c1ccc(-c2ccc(S(N)(=O)=O)cc2)o1`, the Potency is reported as inconclusive: 28.2 µM [inhibitor, partial curve, poor fit]. In the case of `CCC(C)NC(=O)c1ccc(NC(=O)C2CCCO2)cc1` (stereo not drawn), the Potency is reported as inconclusive: 25.1 µM [inhibitor, single point]. In the case of `COc1ccc(C(C(=O)NC2CCCC2)N(C(=O)c2ccoc2C)c2ccc(C)cc2)cc1` (stereo not drawn), the Potency is reported as inconclusive: 35.5 µM [inhibitor, single point]. In the case of `NCCc1c(-c2ccccc2)n(-c2ccccc2)c2ccccc12`, the Potency is reported as inconclusive: 28.2 µM [inhibitor, single point]. With `Cc1cc(C)c(N=Cc2c(O)n(-c3nccs3)c(=O)c3ccccc23)c(C)c1` the Potency was inconclusive: 5.62 µM [inhibitor, partial curve]. In the case of `CC(C)CNC(=O)CC(=O)N/N=C/c1ccc(Br)cc1`, the Potency is reported as inconclusive: 3.55 µM [inhibitor, full curve]. With `Cc1ccc(NS(=O)(=O)c2ccc(NC(=O)CN(c3cc([N+](=O)[O-])ccc3C)S(C)(=O)=O)cc2)c(C)c1` the Potency was inconclusive: 35.5 µM [inhibitor, single point]. In the case of `Cc1ccc(OCc2nc(-c3ccccc3)no2)cc1`, the activity change, negative = inhibition is reported as inactive: -14% [at 9.22 µM]. For `COc1ccc(/C=N/NC(=O)CN(C2=NS(=O)(=O)c3ccccc32)c2ccccc2)cc1OC`, the Potency was inconclusive: 35.5 µM [activator, single point]. For `CC(=O)NC(c1cccs1)c1cc([N+](=O)[O-])c2cccnc2c1O` (stereo not drawn), the Potency was active: 3.16 µM. In the case of `COc1cccc(C(=O)NCC(=O)OCC(=O)Nc2cc(OC)c([N+](=O)[O-])cc2C)c1`, the Potency is reported as inconclusive: 3.55 µM [inhibitor, single point]. For `O=C(Nc1ccc(S(=O)(=O)N2CCOCC2)cc1)c1ccc(CN2CCc3ccccc3C2)cc1`, the Potency was inconclusive: 2.82 µM [inhibitor, full curve]. In the case of `CSC(=S)N/N=C(\C)c1ccc(Br)cc1`, the activity change, negative = inhibition is reported as inactive: -2.22% [at 9.22 µM]. With `CCOC(=O)C(C)(C)N(Cc1ccc(Cl)cc1)S(=O)(=O)c1ccc(Cl)c([N+](=O)[O-])c1` the Potency was inconclusive: 35.5 µM [inhibitor, single point]. In the case of `O=C(c1ccccc1SCc1ccccc1)N1CCOCC1`, the Potency is reported as inconclusive: 6.31 µM [activator, single point]. For `Cc1ccc(C(=O)Nc2cccc(C(F)(F)F)c2)cc1NC(=O)c1ccno1`, the Potency was inconclusive: 3.16 µM [inhibitor, partial curve, poor fit]. In the case of `Cc1ccc(S(=O)(=O)Nc2ccc(Cl)cc2C(=O)c2ccccc2)cc1`, the Potency is reported as inconclusive: 22.4 µM [inhibitor, single point]. With `Cc1ccccc1C(=O)N1CCC(C(=O)Nc2ccc3c(c2)OCO3)CC1` the Potency was “inactive”. With `O=[N+]([O-])c1ccc(-c2nc(C(Cl)Cl)c3ccccc3n2)cc1` the Potency was active: 1.78 µM. In the case of `COc1ccc(C2C(C(=O)N3CCCC3)c3cc(OC)c(OC)cc3C(=O)N2C)cc1` (stereo not drawn), the Potency is reported as inconclusive: 0.794 µM [activator, partial curve]. In the case of `CCOC(=O)C1CCN(C(=O)Nc2ccc3c(c2)nc(C)n3C)CC1`, the Potency is reported as “inactive”. With `O=C1NCCc2c1[nH]c1ccc([N+](=O)[O-])cc21` the Potency was inconclusive: 12.6 µM [inhibitor, single point]. For `CCOC(=O)N1CCN(C(=O)CN(c2cccc(C(F)(F)F)c2)S(=O)(=O)c2ccccc2)CC1`, the Potency was inconclusive: 0.891 µM [inhibitor, single point]. With `Cn1c(=O)c2c(nc(N/N=C/c3cccs3)n2Cc2ccc(Br)cc2)n(C)c1=O` the Potency was inconclusive: 28.2 µM [inhibitor, single point]. With `COc1cccc2c(=O)c3c(cnn3C)n(C)c12` the Potency was inconclusive: 22.4 µM [inhibitor, single point]. With `CCc1ccccc1NC(=S)NC1CC2CCCC(C1)N2Cc1cccs1` (stereo not drawn) the Potency was inconclusive: 8.91 µM [activator, partial curve]. For `CCCCNC(=O)C1CCN(C/C(C)=C/c2ccccc2)CC1`, the Potency was “inactive”. For `CS(=O)(=O)N(CCC#N)Cc1ccc(/C=C2\C(=O)Nc3ccccc32)o1`, the Potency was active: 11.2 µM. For `Cc1cccc(-n2cc[nH]c2=S)c1`, the Potency was “inactive”. In the case of `COc1ccccc1-c1cc(C(=O)N2CCc3ccccc3C2)c2ccccc2n1`, the Potency is reported as inconclusive: 17.8 µM [inhibitor, single point]. With `COc1ccc(Sc2nc(-c3ccccc3)ncc2C(=O)O)cc1` the Potency was inconclusive: 0.562 µM [activator, partial curve, poor fit]. For `CCn1c(SCC(=O)c2cc(OC)ccc2OC)nnc1C(C)C`, the activity change, negative = inhibition was inactive: -9.23% [at 9.22 µM]. With `Cc1ccc(C)c(S(=O)(=O)Nc2cc(SCC(=O)O)c(O)c3ccccc23)c1` the Potency was “inactive”. With `O=C1N=C(N2CCN(c3cccc4ccccc34)CC2)S/C1=C/c1cccs1` the Potency was inconclusive: 14.1 µM [inhibitor, single point]. In the case of `CC(/C=C/c1ccc(N(C)C)cc1)=N\N=C1\NC(=O)CC(C(=O)Nc2ccccc2)S1` (stereo not drawn), the Potency is reported as “inactive”. With `CCc1ccccc1NC(=S)NCCSc1ccc(Cl)cc1` the Potency was inconclusive: 35.5 µM [inhibitor, single point]. For `O=C(c1ccc(S(=O)(=O)c2cccc(Cl)c2)c([N+](=O)[O-])c1)N1CCN(c2ccccn2)CC1`, the Potency was active: 11.2 µM. With `COc1ccc(C(=O)/C=C/C(=O)N(Cc2ccccc2OC)C(C(=O)NC2CCCCC2)c2ccncc2)c(O)c1` (stereo not drawn) the Potency was “inactive”. With `CC(=O)/C=C\c1cn(-c2ncc(C(F)(F)F)cc2Cl)c2ccccc12` the Potency was inconclusive: 17.8 µM [activator, single point]. In the case of `Cc1cc(NC(=O)CSc2n[nH]c(CC(C)C)n2)no1`, the Potency is reported as inconclusive: 3.16 µM [activator, single point]. For `COCCCN1Cc2cccc(C(=O)O)c2C1=O`, the Potency was inconclusive: 1.26 µM [activator, single point]. For `CCc1nnc(NC(=O)c2nc3nc(C)cc(C)n3n2)s1`, the Potency was inconclusive: 15.8 µM [activator, partial curve]. With `CCOCCCNC(=O)N1CCOCC1` the Potency was inconclusive: 8.91 µM [inhibitor, partial curve, poor fit]. In the case of `O=c1c2cc(NC(=S)NCc3cccnc3)ccc2nc2n1CCCCC2`, the Potency is reported as “inactive”. In the case of `Cc1cc(Nc2ccccc2)nc(NCc2ccccc2)n1`, the Potency is reported as active: 6.31 µM. For `CC(NC(=O)CCl)c1ccc(Cl)c(Cl)c1` (stereo not drawn), the Potency was active: 22.4 µM. In the case of `O=C(NC(=S)Nc1cccnc1)c1cccs1`, the activity change, negative = inhibition is reported as inactive: 8.61% [at 9.22 µM]. For `Cc1ccc(S(=O)(=O)CCSc2nc(C)cc(C(F)(F)F)c2C#N)cc1`, the Potency was inconclusive: 35.5 µM [inhibitor, single point]. In the case of `Cc1cc(Cl)nc(-n2nc(C)cc2C)n1`, the Potency is reported as inconclusive: 0.178 µM [inhibitor, full curve, poor fit]. In the case of `COc1ccccc1NC(=O)CN1CCN(C2c3ccccc3-c3ccccc32)CC1`, the Potency is reported as inconclusive: 35.5 µM [inhibitor, single point]. In the case of `CC(C(=O)Nc1ccc2c(c1)OCCO2)N1CCN(C(=O)c2ccco2)CC1` (stereo not drawn), the Potency is reported as inconclusive: 0.631 µM [inhibitor, single point]. For `CCSc1nnc2c(n1)[nH]c1c(C)cccc12`, the Potency was inconclusive: 10 µM [inhibitor, partial curve]. In the case of `COCCOC(=O)C1=C(C)N(c2ccccc2)C(=O)NC1c1cccc([N+](=O)[O-])c1` (stereo not drawn), the Potency is reported as inconclusive: 3.16 µM [inhibitor, partial curve]. In the case of `CCCC1OC23CCCCC2C(C#N)(C#N)C1(C#N)C(=N)O3` (stereo not drawn), the Potency is reported as inconclusive: 12.6 µM [activator, partial curve]. For `O=S(=O)(c1ccc(Cl)cc1)N1CCN(Cc2ccc(O)c3ncccc23)CC1`, the Potency was active: 5.01 µM. For `O=C(Cn1nnc(-c2cccc(C(F)(F)F)c2)n1)N1CCCCCC1`, the Potency was inconclusive: 11.2 µM [inhibitor, partial curve]. In the case of `O=S(=O)(Nc1cccc(CO)c1)c1cccs1`, the activity change, negative = inhibition is reported as inactive: 1.2% [at 9.22 µM]. In the case of `COc1cccc(Cn2cnc3c(NS(=O)(=O)c4cc(Cl)ccc4Cl)c(C)c(C)cc32)c1`, the Potency is reported as inconclusive: 25.1 µM [inhibitor, single point]. For `CCCCc1ccc(NC(=S)NCCc2ccc(F)cc2)cc1`, the Potency was inconclusive: 11.2 µM [inhibitor, single point]. With `COc1ccc(CCNC(=O)c2ccc(CN3CCC(Cc4ccccc4)CC3)cc2)cc1OC` the Potency was “inactive”. In the case of `Nc1cc(CN2C(=O)c3ccccc3C2=O)cc(Cl)c1O`, the Potency is reported as inconclusive: 10 µM [activator, partial curve, poor fit]. In the case of `Cc1sc(NC(=O)c2ccco2)c(C(c2ccccc2)N2CCC(C)CC2)c1C` (stereo not drawn), the Potency is reported as inconclusive: 17.8 µM [inhibitor, single point].

Reference: PubChem BioAssay AID1688 (National Center for Advancing Translational Sciences (NCATS), 2009)
% is scaled to controls: 0 for no effect and ±100 for the full control effect; potency is read from the fitted curve at half-maximal effect.
